{
  "source": "paper PMC8139980",
  "key": {"[1]": {"molecular_target": "hnRNP K KH3 domain (UniProt P61978)", "assay": "MST", "settings": "MST: 20 nM Atto488-protein, PBS with Tween-20 (0.1% in 2x protein stock), 25 C; recombinant protein; single-stranded DNA"}, "[2]": {"molecular_target": "hnRNP K KH3 domain (UniProt P61978)", "assay": "ITC", "settings": "ITC: 50 mM Tris pH 7.5, 150 mM NaCl, 20 C; recombinant protein; single-stranded DNA"}},
  "note": "pKd: −log10 of the molar value. Construct, isoform or probe ends are uncertain for at least one entry.",
  "data": [
    {"sequence": "CTCCCC [hnRNP K binding motif CTCCCC]", "values": [
      {"measurement": "pKd", "setting": "[1]", "result": 4.92},
      {"measurement": "pKd", "setting": "[2]", "result": 4.86}
    ]}
  ]
}
